Results are given in words; binding and its absence hold for the method and conditions named. For some of these results: In cells and extracts the contact can be indirect. Some binding calls cover weakened binding; strength is not graded here. For some of these results: Where a sequence is shown, tags or fusion partners need not be part of it.
What was measured:
[1] = biological target: paxillin (endogenous, in HDF cells) (human (HDF cells)) (UniProt P49023); assay: co-immunoprecipitation, HDF cells
[2] = biological target: paxillin (endogenous, in HDF cells) (human (HDF cells)) (UniProt P49023); assay: immunoprecipitation and immunoblotting, HDF cells (FIG. 3A)
[3] = biological target: paxillin (endogenous, in HDF cells) (human (HDF cells)) (UniProt P49023); assay: immunoprecipitation with anti-calpain 2 and immunoblotting, HDF cells (FIG. 4A)
[4] = biological target: paxillin (endogenous, in HDF cells) (human (HDF cells)) (UniProt P49023); assay: immunoprecipitation with anti-calpain-2, immunoblotting for paxillin, HDF cells
[5] = biological target: paxillin (endogenous, in HDF cells) (human (HDF cells)) (UniProt P49023); assay: immunoprecipitation with anti-paxillin antibody from siβPIX-treated HDF cells, immunoblotting
[6] = biological target: Recombinant paxillin-His protein (UniProt P49023); assay: GST pulldown (FIG. 4B)
[7] = biological target: Recombinant paxillin-His protein (UniProt P49023); assay: GST pulldown with proteins overexpressed in bacteria
[8] = biological target: Recombinant paxillin-His protein (UniProt P49023); assay: competition on bead-bound paxillin, competitor calpain-2, immunoblotting
[9] = biological target: Recombinant paxillin-His protein (UniProt P49023); assay: competition on bead-bound paxillin, competitor GST-calpain-2, immunoblotting (FIG. 5A)
[10] = biological target: Recombinant paxillin-His protein (UniProt P49023); assay: competition on Ni2+ bead-bound paxillin, competitor GST-calpain-2; GST-GIT1-CT added at 0, 1, 3 and 10 µg; immunoblotting
[11] = biological target: paxillin (endogenous, in HDF cells) (human (HDF cells)) (UniProt P49023); assay: co-immunoprecipitation from siβPIX-treated HDF cells (FIG. 5B)
[12] = biological target: paxillin (endogenous, in HDF cells) (human (HDF cells)) (UniProt P49023); assay: co-immunoprecipitation with anti-paxillin antibody from siβPIX-treated HDF cells overexpressing GFP or GFP-GIT-CT, immunoblotting
[13] = biological target: Recombinant paxillin-His protein (UniProt P49023); assay: GST pulldown
[14] = biological target: Recombinant paxillin-His protein (UniProt P49023); assay: GST pulldown (FIG. 4C)
[15] = biological target: Recombinant paxillin-His protein (UniProt P49023); assay: GST pulldown with AMPH-NT and AMPH-CT regions
[16] = biological target: paxillin (endogenous, in HDF cells) (human (HDF cells)) (UniProt P49023); assay: immunoprecipitation with anti-AMPH-I and immunoblotting, HDF cells (FIG. 4A)
[17] = biological target: paxillin (endogenous, in HDF cells) (human (HDF cells)) (UniProt P49023); assay: immunoprecipitation with anti-AMPH-I, immunoblotting for paxillin, HDF cells

The chains behind the UniProt entries cited, without tags or fusion partners. Where a name states a change or a piece, a line headed by the entry shows the natural chain unless it says otherwise.
UniProt P49023: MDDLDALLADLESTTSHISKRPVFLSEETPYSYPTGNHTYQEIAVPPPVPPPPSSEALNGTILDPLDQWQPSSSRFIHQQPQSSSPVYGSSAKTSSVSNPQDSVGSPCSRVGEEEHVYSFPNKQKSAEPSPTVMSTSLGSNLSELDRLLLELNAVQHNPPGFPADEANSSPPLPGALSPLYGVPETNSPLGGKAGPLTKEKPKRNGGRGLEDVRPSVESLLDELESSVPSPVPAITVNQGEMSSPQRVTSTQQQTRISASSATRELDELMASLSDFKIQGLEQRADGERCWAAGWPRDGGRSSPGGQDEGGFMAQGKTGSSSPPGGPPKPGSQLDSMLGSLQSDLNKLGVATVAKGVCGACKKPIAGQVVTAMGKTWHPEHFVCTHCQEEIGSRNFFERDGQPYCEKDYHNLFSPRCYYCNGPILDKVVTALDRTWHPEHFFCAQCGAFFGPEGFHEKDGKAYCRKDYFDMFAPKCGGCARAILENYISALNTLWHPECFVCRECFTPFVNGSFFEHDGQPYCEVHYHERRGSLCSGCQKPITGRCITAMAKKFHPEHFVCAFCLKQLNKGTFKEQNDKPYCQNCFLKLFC
UniProt P17655: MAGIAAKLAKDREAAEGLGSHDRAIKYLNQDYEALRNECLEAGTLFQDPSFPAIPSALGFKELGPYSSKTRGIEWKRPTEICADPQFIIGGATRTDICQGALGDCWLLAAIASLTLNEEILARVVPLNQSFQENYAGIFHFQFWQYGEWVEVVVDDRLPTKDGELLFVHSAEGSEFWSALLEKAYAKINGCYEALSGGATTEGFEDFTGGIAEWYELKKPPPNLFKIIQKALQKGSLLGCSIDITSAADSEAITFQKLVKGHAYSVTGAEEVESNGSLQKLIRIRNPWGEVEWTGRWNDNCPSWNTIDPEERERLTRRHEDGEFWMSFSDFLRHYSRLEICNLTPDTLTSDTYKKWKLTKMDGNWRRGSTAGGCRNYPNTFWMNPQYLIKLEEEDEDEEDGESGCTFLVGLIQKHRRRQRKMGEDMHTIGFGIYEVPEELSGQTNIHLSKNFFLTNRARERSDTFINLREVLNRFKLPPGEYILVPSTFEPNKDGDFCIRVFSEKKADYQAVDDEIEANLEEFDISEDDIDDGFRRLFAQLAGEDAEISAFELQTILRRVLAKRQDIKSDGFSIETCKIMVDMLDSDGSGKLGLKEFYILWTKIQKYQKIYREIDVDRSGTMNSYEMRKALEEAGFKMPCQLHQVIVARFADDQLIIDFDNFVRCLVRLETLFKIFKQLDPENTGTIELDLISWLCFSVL

Measured: binding

calpain-2 (endogenous, in HDF cells) (from UniProt P17655 2-700) (enzyme)
binds: [1] | [2] | [3] | [4] | [5]

GST-calpain-2 (from UniProt P17655 1-700) (enzyme)
binds: [6] | [7]

B1: GST-GIT1-CT (GIT1 C-terminus, amino acids 376-770) (protein, not shown: a dimerising Fc or GST)
chain: LELSARNQSDLDDQHDYDSVASDEDTDQEPLPSAGATRNNRARSMDSSDLSDGAVTLQEYLELKKALATSEAKVQQLMKVNSSLSDELRKLQREIHKLQAENLQLRQPPGPVPVPSLPSERAEHTLMGPGGSTHRRDRQAFSMYEPGSALKPFGGAPGDELATRLQPFHSTELEDDAIYSVHVPAGLYRIRKGVSASSVTFTPSSPLLSSSQEGSRHASKLSRHGSGAESDYENTQSGEPLLGLEGKRFLELSKEDELHAELESLDGDPDPGLPSTEDVILKTEQVTKNIQELLRAAQEFKHDSFVPCSEKIHLAVTEMASLFPKRPALEPVRSSLRLLNASAYRLQSECRKTVPPEPGAPVDFQLLTQQVIQCAYDIAKAAKQLVTITTREKKQ
binds: [8] | [9] | [10]

B2: GFP-GIT-CT (protein, not shown: large carriers)
chain: LELSARNQSDLDDQHDYDSVASDEDTDQEPLPSAGATRNNRARSMDSSDLSDGAVTLQEYLELKKALATSEAKVQQLMKVNSSLSDELRKLQREIHKLQAENLQLRQPPGPVPVPSLPSERAEHTLMGPGGSTHRRDRQAFSMYEPGSALKPFGGAPGDELATRLQPFHSTELEDDAIYSVHVPAGLYRIRKGVSASSVTFTPSSPLLSSSQEGSRHASKLSRHGSGAESDYENTQSGEPLLGLEGKRFLELSKEDELHAELESLDGDPDPGLPSTEDVILKTEQVTKNIQELLRAAQEFKHDSFVPCSEKIHLAVTEMASLFPKRPALEPVRSSLRLLNASAYRLQSECRKTVPPEPGAPVDFQLLTQQVIQCAYDIAKAAKQLVTITTREKKQ
binds: [11] | [12]

B3: GST-tagged amphiphysin I N-terminal construct (NT, a.a. 1-351) (protein, UniProt P49418 1-351, looked up, not shown: a dimerising Fc or GST)
chain: MADIKTGIFAKNVQKRLNRAQEKVLQKLGKADETKDEQFEEYVQNFKRQEAEGTRLQRELRGYLAAIKGMQEASMKLTESLHEVYEPDWYGREDVKMVGEKCDVLWEDFHQKLVDGSLLTLDTYLGQFPDIKNRIAKRSRKLVDYDSARHHLEALQSSKRKDESRISKAEEEFQKAQKVFEEFNVDLQEELPSLWSRRVGFYVNTFKNVSSLEAKFHKEIAVLCHKLYEVMTKLGDQHADKAFTIQGAPSDSGPLRIAKTPSPPEEPSPLPSPTASPNHTLAPASPAPARPRSPSQTRKGPPVPPLPKVTPTKELQQENIISFFEDNFVPEISVTTPSQNEVPEVKKEETL
binds: [13] | [14] | [15]

B4: AMPH-I (amphiphysin-I) (endogenous, in HDF cells) (protein, human (HDF cells), UniProt P49418 1-695, looked up)
chain: MADIKTGIFAKNVQKRLNRAQEKVLQKLGKADETKDEQFEEYVQNFKRQEAEGTRLQRELRGYLAAIKGMQEASMKLTESLHEVYEPDWYGREDVKMVGEKCDVLWEDFHQKLVDGSLLTLDTYLGQFPDIKNRIAKRSRKLVDYDSARHHLEALQSSKRKDESRISKAEEEFQKAQKVFEEFNVDLQEELPSLWSRRVGFYVNTFKNVSSLEAKFHKEIAVLCHKLYEVMTKLGDQHADKAFTIQGAPSDSGPLRIAKTPSPPEEPSPLPSPTASPNHTLAPASPAPARPRSPSQTRKGPPVPPLPKVTPTKELQQENIISFFEDNFVPEISVTTPSQNEVPEVKKEETLLDLDFDPFKPEVTPAGSAGVTHSPMSQTLPWDLWTTSTDLVQPASGGSFNGFTQPQDTSLFTMQTDQSMICNLAESEQAPPTEPKAEEPLAAVTPAVGLDLGMDTRAEEPVEEAVIIPGADADAAVGTLVSAAEGAPGEEAEAEKATVPAGEGVSLEEAKIGTETTEGAESAQPEAEELEATVPQEKVIPSVVIEPASNHEEEGENEITIGAEPKETTEDAAPPGPTSETPELATEQKPIQDPQPTPSAPAMGAADQLASAREASQELPPGFLYKVETLHDFEAANSDELTLQRGDVVLVVPSDSEADQDAGWLVGVKESDWLQYRDLATYKGLFPENFTRRLD
binds: [1] | [16] | [17] | [5]

Source: patent publication US20210093693A1
